The supplement of paper PMC10849652
This is one part of the list.

Amino acid sequences for entries named in this document (tags omitted). A change or cut given only in a name is not applied to a line headed by its entry.
UniProt Q8N335: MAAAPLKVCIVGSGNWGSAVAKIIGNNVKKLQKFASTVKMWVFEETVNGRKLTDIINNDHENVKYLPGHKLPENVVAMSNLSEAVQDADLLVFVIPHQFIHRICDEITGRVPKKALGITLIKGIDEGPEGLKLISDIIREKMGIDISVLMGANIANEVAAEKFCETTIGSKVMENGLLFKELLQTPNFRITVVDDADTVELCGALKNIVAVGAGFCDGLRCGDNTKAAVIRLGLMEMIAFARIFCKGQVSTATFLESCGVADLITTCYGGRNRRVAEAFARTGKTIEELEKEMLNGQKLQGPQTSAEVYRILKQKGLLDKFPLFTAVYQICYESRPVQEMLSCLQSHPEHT
UniProt Q96IJ6: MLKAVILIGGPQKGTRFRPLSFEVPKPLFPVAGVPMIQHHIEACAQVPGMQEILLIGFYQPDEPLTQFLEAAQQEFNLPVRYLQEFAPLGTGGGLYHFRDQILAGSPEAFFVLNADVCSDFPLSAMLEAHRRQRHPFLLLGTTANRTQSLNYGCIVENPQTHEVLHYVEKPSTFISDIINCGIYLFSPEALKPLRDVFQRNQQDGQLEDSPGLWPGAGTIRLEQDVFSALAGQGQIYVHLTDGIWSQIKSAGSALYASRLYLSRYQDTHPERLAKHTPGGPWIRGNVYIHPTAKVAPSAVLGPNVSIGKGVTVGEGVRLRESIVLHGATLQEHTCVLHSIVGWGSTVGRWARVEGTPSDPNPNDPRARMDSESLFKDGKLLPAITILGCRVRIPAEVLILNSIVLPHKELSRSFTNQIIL
UniProt P36915, whole entry, looked up: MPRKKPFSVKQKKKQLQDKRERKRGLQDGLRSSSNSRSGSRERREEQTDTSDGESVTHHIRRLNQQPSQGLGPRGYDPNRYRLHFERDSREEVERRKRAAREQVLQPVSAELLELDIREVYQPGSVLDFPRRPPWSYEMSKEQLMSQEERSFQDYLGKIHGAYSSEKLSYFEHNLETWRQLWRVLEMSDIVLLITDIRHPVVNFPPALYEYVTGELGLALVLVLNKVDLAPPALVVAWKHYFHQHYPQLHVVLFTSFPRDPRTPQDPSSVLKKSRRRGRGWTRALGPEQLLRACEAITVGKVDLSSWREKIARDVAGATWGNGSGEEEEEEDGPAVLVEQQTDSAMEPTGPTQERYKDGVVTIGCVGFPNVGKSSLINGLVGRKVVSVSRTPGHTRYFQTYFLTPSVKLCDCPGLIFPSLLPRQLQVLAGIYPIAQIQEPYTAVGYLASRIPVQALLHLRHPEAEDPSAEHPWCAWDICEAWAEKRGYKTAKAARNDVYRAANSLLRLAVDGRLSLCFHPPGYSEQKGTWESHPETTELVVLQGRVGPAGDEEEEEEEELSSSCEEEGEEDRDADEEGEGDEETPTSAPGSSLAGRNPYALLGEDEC
UniProt P32189: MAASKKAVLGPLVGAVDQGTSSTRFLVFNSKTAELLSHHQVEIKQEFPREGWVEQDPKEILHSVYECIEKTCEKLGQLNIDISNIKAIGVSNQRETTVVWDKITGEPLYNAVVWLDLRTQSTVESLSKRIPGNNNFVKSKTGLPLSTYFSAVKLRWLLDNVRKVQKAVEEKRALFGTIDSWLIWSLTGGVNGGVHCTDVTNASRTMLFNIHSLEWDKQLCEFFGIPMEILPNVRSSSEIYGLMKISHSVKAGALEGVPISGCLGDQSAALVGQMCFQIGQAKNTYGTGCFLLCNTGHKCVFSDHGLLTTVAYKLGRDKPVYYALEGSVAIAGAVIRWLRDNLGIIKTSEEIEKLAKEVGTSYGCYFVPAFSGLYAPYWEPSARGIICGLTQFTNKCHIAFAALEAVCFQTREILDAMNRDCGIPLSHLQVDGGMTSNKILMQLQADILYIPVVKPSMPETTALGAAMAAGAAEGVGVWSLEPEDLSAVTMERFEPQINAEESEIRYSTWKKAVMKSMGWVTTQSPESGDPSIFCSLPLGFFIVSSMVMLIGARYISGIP
UniProt Q8TDQ7: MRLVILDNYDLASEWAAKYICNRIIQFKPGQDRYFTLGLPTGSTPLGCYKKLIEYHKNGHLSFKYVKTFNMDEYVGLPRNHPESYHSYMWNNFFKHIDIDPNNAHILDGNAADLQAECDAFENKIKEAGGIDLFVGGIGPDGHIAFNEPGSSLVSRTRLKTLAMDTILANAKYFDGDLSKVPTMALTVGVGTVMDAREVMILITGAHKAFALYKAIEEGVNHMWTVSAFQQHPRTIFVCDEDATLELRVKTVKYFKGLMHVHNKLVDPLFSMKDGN
UniProt P29992, whole entry, looked up: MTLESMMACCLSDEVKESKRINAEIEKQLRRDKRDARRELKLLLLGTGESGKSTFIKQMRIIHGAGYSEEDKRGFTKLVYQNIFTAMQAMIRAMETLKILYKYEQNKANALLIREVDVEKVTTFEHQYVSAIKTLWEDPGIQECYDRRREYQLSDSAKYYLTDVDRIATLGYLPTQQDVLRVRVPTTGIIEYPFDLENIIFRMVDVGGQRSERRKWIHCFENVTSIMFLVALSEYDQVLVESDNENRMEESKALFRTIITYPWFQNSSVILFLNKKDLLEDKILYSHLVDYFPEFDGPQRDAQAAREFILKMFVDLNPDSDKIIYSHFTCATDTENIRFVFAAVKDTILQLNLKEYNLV
UniProt Q53EU6: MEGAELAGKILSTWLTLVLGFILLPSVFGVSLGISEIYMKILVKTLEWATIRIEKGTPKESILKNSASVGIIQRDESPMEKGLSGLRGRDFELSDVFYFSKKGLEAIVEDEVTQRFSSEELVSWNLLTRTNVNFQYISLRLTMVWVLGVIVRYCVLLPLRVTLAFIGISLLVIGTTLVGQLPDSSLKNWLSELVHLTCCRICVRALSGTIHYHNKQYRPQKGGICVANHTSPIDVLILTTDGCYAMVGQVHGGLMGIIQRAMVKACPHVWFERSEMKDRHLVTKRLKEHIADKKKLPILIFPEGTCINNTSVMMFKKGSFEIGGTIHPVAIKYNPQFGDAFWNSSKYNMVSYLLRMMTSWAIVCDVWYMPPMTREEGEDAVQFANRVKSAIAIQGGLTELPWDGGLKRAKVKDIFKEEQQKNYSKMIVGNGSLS
UniProt O94923: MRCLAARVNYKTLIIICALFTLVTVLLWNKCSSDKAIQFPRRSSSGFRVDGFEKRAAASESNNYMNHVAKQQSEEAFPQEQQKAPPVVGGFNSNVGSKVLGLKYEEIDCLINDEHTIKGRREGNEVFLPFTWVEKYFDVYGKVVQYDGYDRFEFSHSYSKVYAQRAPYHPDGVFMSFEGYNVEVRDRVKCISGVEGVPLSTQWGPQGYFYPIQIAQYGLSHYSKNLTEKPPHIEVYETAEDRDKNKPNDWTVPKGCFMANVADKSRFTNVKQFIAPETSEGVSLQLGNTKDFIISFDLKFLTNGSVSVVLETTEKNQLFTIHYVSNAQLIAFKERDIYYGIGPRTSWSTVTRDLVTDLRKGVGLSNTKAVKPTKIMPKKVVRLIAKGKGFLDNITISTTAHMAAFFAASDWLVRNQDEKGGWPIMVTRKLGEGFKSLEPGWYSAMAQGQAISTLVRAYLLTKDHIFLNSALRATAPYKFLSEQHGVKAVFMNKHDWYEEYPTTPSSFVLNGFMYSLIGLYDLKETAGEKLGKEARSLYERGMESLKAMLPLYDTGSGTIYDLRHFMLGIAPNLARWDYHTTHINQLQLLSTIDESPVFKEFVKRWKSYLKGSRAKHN
UniProt P49915: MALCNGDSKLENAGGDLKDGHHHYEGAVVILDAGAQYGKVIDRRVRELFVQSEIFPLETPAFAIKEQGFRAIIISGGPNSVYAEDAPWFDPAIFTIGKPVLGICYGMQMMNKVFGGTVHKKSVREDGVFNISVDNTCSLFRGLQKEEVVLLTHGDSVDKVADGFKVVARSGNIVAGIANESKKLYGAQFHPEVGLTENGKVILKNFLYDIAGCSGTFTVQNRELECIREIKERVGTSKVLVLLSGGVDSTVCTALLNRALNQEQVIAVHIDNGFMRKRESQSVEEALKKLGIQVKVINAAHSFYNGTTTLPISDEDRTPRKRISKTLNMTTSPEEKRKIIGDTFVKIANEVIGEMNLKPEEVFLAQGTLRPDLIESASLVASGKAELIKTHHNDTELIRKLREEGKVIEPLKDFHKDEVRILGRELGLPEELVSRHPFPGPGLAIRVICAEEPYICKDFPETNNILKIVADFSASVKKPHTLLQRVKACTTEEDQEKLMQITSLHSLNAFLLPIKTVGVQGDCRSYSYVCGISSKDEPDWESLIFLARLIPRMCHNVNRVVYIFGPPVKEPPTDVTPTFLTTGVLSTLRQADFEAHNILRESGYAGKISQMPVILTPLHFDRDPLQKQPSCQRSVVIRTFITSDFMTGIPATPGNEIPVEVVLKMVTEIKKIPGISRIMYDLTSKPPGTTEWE
UniProt Q7Z2K8: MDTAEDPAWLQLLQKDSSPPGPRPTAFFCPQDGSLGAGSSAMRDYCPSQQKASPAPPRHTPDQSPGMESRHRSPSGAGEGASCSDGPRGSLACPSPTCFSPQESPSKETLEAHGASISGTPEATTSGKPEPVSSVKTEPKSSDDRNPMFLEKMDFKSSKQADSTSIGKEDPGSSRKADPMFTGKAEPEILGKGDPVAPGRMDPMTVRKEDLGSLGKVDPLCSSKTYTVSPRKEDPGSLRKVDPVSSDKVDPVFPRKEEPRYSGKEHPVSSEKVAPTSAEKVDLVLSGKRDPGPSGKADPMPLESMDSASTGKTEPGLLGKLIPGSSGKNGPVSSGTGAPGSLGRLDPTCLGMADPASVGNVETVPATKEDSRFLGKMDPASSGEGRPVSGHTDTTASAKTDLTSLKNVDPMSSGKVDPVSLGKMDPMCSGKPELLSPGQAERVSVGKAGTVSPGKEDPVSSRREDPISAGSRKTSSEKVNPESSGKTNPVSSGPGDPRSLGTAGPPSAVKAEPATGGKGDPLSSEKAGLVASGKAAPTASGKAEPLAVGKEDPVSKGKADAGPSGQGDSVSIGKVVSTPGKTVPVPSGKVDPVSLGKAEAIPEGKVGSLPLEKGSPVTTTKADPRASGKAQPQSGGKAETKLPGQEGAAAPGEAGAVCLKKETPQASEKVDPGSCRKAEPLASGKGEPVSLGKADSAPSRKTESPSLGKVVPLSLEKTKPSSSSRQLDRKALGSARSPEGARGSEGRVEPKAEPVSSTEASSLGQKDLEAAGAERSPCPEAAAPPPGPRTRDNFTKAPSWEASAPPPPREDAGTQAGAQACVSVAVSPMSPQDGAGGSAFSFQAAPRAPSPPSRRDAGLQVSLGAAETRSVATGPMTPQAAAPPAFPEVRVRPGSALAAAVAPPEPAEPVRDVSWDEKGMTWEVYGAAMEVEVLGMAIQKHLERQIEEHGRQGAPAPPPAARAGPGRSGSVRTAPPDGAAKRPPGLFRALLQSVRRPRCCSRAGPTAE
UniProt O43292: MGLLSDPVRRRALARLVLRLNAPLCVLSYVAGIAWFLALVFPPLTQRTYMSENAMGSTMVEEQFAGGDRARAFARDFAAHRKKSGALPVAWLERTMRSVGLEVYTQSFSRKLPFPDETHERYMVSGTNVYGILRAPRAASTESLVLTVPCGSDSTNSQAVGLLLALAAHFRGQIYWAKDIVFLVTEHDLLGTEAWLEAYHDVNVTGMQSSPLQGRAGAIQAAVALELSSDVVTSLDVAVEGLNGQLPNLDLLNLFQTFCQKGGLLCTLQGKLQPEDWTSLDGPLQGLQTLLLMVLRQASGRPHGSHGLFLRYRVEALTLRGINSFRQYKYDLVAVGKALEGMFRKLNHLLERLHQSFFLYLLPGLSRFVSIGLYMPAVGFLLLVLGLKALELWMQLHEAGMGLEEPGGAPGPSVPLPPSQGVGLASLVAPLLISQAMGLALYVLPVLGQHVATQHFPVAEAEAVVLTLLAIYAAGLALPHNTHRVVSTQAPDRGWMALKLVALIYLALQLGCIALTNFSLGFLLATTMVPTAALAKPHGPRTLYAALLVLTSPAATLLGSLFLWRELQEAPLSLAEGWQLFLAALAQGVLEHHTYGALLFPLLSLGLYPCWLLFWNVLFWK

Tests used:
Experiment in all cases: log2 fold change, soluble protein after heating vs DMSO (PISA); higher = thermal stabilisation; K562 lysate, 10 uM; active = over 0.2 and 3.5 SD of the protein, either way, in both replicates (recomputed)
lapatinib = compound: CS(=O)(=O)CCNCc1ccc(-c2ccc3ncnc(Nc4ccc(OCc5cccc(F)c5)c(Cl)c4)c3c2)o1 [lapatinib]
Summary of the method: (§1)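 Log-two fold change in thermal stability relative to solvent controls is reported from duplicates. For each sample, crude K562 extract from dounce-homogenised pellets in PBS pH 7.4 with 1 mM MgCl2, at 1 mg/mL protein, was treated with 10 μM compound for 30 min. Aliquots heated for 3 min across 48°C-58°C were pooled, brought to 0.5% NP-40 at 4°C and cleared at 21,000xg for 90 min. The supernatant was quantified by TMTpro 16plex LC-MS/MS with channel sums equalised.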

pictilisib = compound: CS(=O)(=O)N1CCN(Cc2cc3nc(-c4cccc5[nH]ncc45)nc(N4CCOCC4)c3s2)CC1 [pictilisib]
Summary of the method: as §1

crizotinib = compound: C[C@@H](Oc1cc(-c2cnn(C3CCNCC3)c2)cnc1N)c1c(Cl)ccc(F)c1Cl [crizotinib]
Summary of the method: as §1

[1] = compound: C[C@H](C1=CC=C(C=C1)C(=O)NC2=C3C=CNC3=NC=C2)N
Summary of the method: as §1

duvelisib = compound: C[C@H](Nc1ncnc2nc[nH]c12)c1cc2cccc(Cl)c2c(=O)n1-c1ccccc1 [duvelisib]
Summary of the method: as §1

gandotinib = compound: Cc1cc(Nc2cc(CN3CCOCC3)c3nc(C)c(Cc4ccc(Cl)cc4F)n3n2)n[nH]1 [gandotinib]
Summary of the method: as §1

tozasertib = compound: Cc1cc(Nc2cc(N3CCN(C)CC3)nc(Sc3ccc(NC(=O)C4CC4)cc3)n2)n[nH]1 [tozasertib]
Summary of the method: as §1

doramapimod = compound: Cc1ccc(-n2nc(C(C)(C)C)cc2NC(=O)Nc2ccc(OCCN3CCOCC3)c3ccccc23)cc1 [doramapimod]
Summary of the method: as §1

bafetinib = compound: Cc1ccc(NC(=O)c2ccc(CN3CC[C@H](N(C)C)C3)c(C(F)(F)F)c2)cc1Nc1nccc(-c2cncnc2)n1 [bafetinib]
Summary of the method: as §1

[2] = compound: Cc1cccc(CC(=O)N2CCc3c2ccc(-c2cn(C)c4ncnc(N)c24)c3F)n1
Summary of the method: as §1

nilotinib = compound: Cc1cn(-c2cc(NC(=O)c3ccc(C)c(Nc4nccc(-c5cccnc5)n4)c3)cc(C(F)(F)F)c2)cn1 [nilotinib]
Summary of the method: as §1

[3] = compound: Cc1nc(Nc2n[nH]c3c2CN(C(=O)N[C@H](CN(C)C)c2ccccc2)C3(C)C)c2sccc2n1
Summary of the method: as §1

dasatinib = compound: Cc1nc(Nc2ncc(C(=O)Nc3c(C)cccc3Cl)s2)cc(N2CCN(CCO)CC2)n1 [dasatinib]
Summary of the method: as §1

[4] = compound: Cc1ncc(-c2ccnc(Nc3ccc(S(C)(=O)=O)cc3)n2)n1C(C)C
Summary of the method: as §1

[5] = compound: Cn1cc(-c2ccc3c(c2)CCN3C(=O)Cc2cccc(C(F)(F)F)c2)c2c(N)ncnc21
Summary of the method: as §1

quisinostat = compound: Cn1cc(CNCC2CCN(c3ncc(C(=O)NO)cn3)CC2)c2ccccc21 [quisinostat]
Summary of the method: as §1

tipifarnib = compound: Cn1cncc1[C@@](N)(c1ccc(Cl)cc1)c1ccc2c(c1)c(-c1cccc(Cl)c1)cc(=O)n2C [tipifarnib]
Summary of the method: as §1

[6] = compound: NC(=O)Nc1cc(-c2cccc(F)c2)sc1C(=O)N[C@H]1CCCNC1
Summary of the method: as §1

[7] = compound: NC(=O)c1cnc(N[C@@H]2CCCC[C@@H]2N)nc1Nc1cccc(-n2nccn2)c1
Summary of the method: as §1

[8] = compound: NC1(c2ccc(-c3nc4ccn5c(=O)[nH]nc5c4cc3-c3ccccc3)cc2)CCC1
Summary of the method: as §1

Measured: log2 fold change

GPD1L (UniProt Q8N335)
inactive: lapatinib 0.009 | pictilisib 0 | crizotinib -0.006 | [1] -0.006 | duvelisib 0.019 | gandotinib -0.067 | tozasertib 0.028 | doramapimod -0.006 | bafetinib 0.029 | [2] 0.05 | nilotinib 0.016 | [3] 0.005 | dasatinib -0.035 | [4] 0.051 | [5] 0.02 | quisinostat 0 | tipifarnib 0.031 | [6] 0.041 | [7] 0.051 | [8] 0.038

GGA3 (UniProt Q9NZ52)
inactive: lapatinib 0.02 | pictilisib 0 | crizotinib -0.042 | [1] -0.023 | duvelisib 0 | gandotinib -0.012 | tozasertib 0.074 | doramapimod 0.034 | bafetinib 0.047 | [2] 0.053 | nilotinib -0.061 | [3] -0.008 | dasatinib -0.015 | [4] -0.055 | [5] 0.016 | quisinostat -0.046 | tipifarnib 0.015 | [6] 0.058 | [7] -0.003 | [8] 0.022

GMPPA (UniProt Q96IJ6)
inactive: lapatinib -0.043 | pictilisib -0.025 | crizotinib -0.049 | [1] -0.122 | duvelisib -0.039 | gandotinib 0.039 | tozasertib 0.001 | doramapimod 0.054 | bafetinib 0.009 | [2] 0.08 | nilotinib 0.006 | [3] -0.005 | dasatinib -0.085 | [4] -0.01 | [5] 0.023 | quisinostat -0.105 | tipifarnib -0.013 | [6] 0.048 | [7] 0.033 | [8] -0.047

GIT1 (UniProt Q9Y2X7)
inactive: lapatinib 0.029 | pictilisib -0.007 | crizotinib -0.015 | [1] 0.009 | duvelisib -0.08 | gandotinib -0.076 | tozasertib -0.002 | doramapimod -0.004 | bafetinib -0.047 | [2] -0.007 | nilotinib 0.03 | [3] -0.062 | dasatinib -0.05 | [4] -0.042 | [5] 0.036 | quisinostat -0.045 | tipifarnib -0.086 | [6] 0.035 | [7] -0.007 | [8] -0.026

GLG1 isoform 2 (UniProt Q92896)
inactive: lapatinib -0.021 | pictilisib -0.025 | crizotinib 0.05 | [1] -0.006 | duvelisib -0.011 | gandotinib 0.027 | tozasertib 0.016 | doramapimod 0.008 | bafetinib 0.034 | [2] -0.013 | nilotinib 0.014 | [3] -0.008 | dasatinib 0.018 | [4] 0.024 | [5] 0.021 | quisinostat -0.017 | tipifarnib -0.012 | [6] 0.016 | [7] 0.005 | [8] -0.01

GNL1 (UniProt P36915)
inactive: lapatinib -0.037 | pictilisib -0.031 | crizotinib -0.056 | [1] 0.031 | duvelisib -0.017 | gandotinib -0.087 | tozasertib 0.021 | doramapimod -0.015 | bafetinib 0.009 | [2] 0.028 | nilotinib -0.001 | [3] 0.017 | dasatinib -0.028 | [4] -0.021 | [5] 0 | quisinostat 0.025 | tipifarnib 0.027 | [6] 0.034 | [7] 0.001 | [8] -0.031

GK (UniProt P32189)
inactive: lapatinib -0.016 | pictilisib -0.009 | crizotinib 0.021 | [1] -0.022 | duvelisib 0.027 | gandotinib 0.055 | tozasertib 0.007 | doramapimod 0.048 | bafetinib -0.038 | [2] 0.022 | nilotinib 0.017 | [3] -0.014 | dasatinib 0.015 | [4] -0.055 | [5] 0.017 | quisinostat -0.008 | tipifarnib -0.029 | [6] -0.021 | [7] -0.006 | [8] 0.025

GNPDA2 (UniProt Q8TDQ7)
inactive: lapatinib 0.003 | pictilisib -0.051 | crizotinib 0.024 | [1] 0.009 | duvelisib 0.031 | gandotinib -0.023 | tozasertib 0.035 | doramapimod -0.012 | bafetinib 0.106 | [2] -0.008 | nilotinib -0.027 | [3] 0 | dasatinib -0.01 | [4] -0.007 | [5] 0.014 | quisinostat 0.031 | tipifarnib -0.081 | [6] 0.004 | [7] 0.002 | [8] 0.038

GOPC (UniProt Q9HD26)
inactive: lapatinib -0.037 | pictilisib -0.013 | crizotinib 0.014 | [1] 0.01 | duvelisib -0.003 | gandotinib -0.043 | tozasertib -0.037 | doramapimod 0.14 | bafetinib -0.013 | [2] 0.011 | nilotinib -0.016 | [3] 0.034 | dasatinib -0.033 | [4] -0.009 | [5] 0.028 | quisinostat 0.031 | tipifarnib 0.02 | [6] 0.032 | [7] 0.036 | [8] 0.067

GNA11 (UniProt P29992)
inactive: lapatinib -0.005 | pictilisib -0.045 | crizotinib -0.004 | [1] -0.052 | duvelisib 0.023 | gandotinib -0.001 | tozasertib 0.068 | doramapimod 0.009 | bafetinib -0.013 | [2] 0.066 | nilotinib 0.003 | [3] -0.001 | dasatinib 0.021 | [4] -0.003 | [5] 0.039 | quisinostat 0.04 | tipifarnib -0.009 | [6] -0.004 | [7] 0.022 | [8] 0.025

GPAT3 (UniProt Q53EU6)
inactive: lapatinib -0.032 | pictilisib 0 | crizotinib 0.016 | [1] -0.166 | duvelisib 0.059 | gandotinib 0.026 | tozasertib 0.004 | doramapimod -0.009 | bafetinib -0.162 | [2] 0.073 | nilotinib -0.038 | [3] 0.058 | dasatinib -0.08 | [4] 0.018 | [5] 0.034 | quisinostat 0 | tipifarnib -0.018 | [6] 0.007 | [7] 0.019 | [8] 0.004

GLCE (UniProt O94923)
inactive: lapatinib -0.066 | pictilisib -0.063 | crizotinib -0.1 | [1] -0.146 | duvelisib 0.005 | gandotinib 0.249 | tozasertib 0.023 | doramapimod 0.091 | bafetinib -0.055 | [2] 0.207 | nilotinib -0.035 | [3] 0.076 | dasatinib -0.033 | [4] -0.042 | [5] -0.104 | quisinostat -0.04 | tipifarnib 0.025 | [6] 0.021 | [7] 0.054 | [8] -0.002

GMPS (UniProt P49915)
inactive: lapatinib -0.008 | pictilisib -0.014 | crizotinib 0.007 | [1] 0.115 | duvelisib 0.006 | gandotinib -0.071 | tozasertib -0.001 | doramapimod -0.036 | bafetinib -0.012 | [2] -0.032 | nilotinib -0.006 | [3] -0.019 | dasatinib -0.016 | [4] 0 | [5] 0 | quisinostat 0.041 | tipifarnib -0.008 | [6] 0.001 | [7] 0.001 | [8] 0.009

GGNBP2 (UniProt Q9H3C7)
inactive: lapatinib 0.013 | pictilisib -0.017 | crizotinib -0.037 | [1] -0.029 | duvelisib 0.008 | gandotinib -0.082 | tozasertib -0.007 | doramapimod 0.005 | bafetinib -0.032 | [2] 0.02 | nilotinib -0.044 | [3] -0.063 | dasatinib -0.044 | [4] 0.035 | [5] 0.004 | quisinostat -0.037 | tipifarnib 0.094 | [6] 0.024 | [7] -0.008 | [8] 0.047

GPRIN1 (UniProt Q7Z2K8)
inactive: lapatinib -0.013 | pictilisib -0.004 | crizotinib -0.015 | [1] 0.029 | duvelisib -0.001 | gandotinib 0.019 | tozasertib 0.013 | doramapimod 0.007 | bafetinib 0.003 | [2] -0.037 | nilotinib -0.03 | [3] -0.016 | dasatinib 0.018 | [4] 0.035 | [5] 0.03 | quisinostat -0.021 | tipifarnib -0.035 | [6] -0.009 | [7] 0 | [8] -0.021

GPAA1 (UniProt O43292)
inactive: lapatinib -0.091 | pictilisib -0.05 | crizotinib -0.072 | [1] 0.041 | duvelisib -0.006 | gandotinib -0.051 | tozasertib -0.001 | doramapimod 0.012 | bafetinib -0.058 | [2] 0.137 | nilotinib -0.013 | [3] 0.007 | dasatinib -0.014 | [4] 0.032 | [5] 0.023 | quisinostat -0.057 | tipifarnib -0.011 | [6] 0.019 | [7] -0.01 | [8] -0.089
